Laboratory results as given in US20140142045A1.
These are yes or no findings as the source states them, for the method shown. In cells and extracts the contact can be indirect. Some binding calls cover weakened binding; strength is not graded here.

Sequences of proteins named here, by UniProt entry; tags and fusion partners are left off. A change or cut given only in a name is not applied to a line headed by its entry.
UniProt P25963: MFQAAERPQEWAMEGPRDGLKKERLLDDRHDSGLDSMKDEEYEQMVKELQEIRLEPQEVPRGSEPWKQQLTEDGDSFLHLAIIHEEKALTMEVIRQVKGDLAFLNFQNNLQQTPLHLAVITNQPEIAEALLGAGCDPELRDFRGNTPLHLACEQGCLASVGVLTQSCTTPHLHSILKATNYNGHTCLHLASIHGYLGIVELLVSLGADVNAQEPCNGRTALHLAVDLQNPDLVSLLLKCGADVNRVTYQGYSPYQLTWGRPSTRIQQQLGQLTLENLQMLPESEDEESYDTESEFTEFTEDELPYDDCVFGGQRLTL
UniProt P53805: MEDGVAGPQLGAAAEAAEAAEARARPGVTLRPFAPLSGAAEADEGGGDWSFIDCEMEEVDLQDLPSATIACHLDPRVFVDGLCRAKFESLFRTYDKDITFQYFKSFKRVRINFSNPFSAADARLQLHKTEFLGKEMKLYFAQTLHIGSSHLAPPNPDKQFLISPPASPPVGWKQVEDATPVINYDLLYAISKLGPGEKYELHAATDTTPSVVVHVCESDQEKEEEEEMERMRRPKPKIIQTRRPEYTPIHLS

How the values were obtained:
[1] = molecular target: IKBα (KB inhibitor IKB, endogenous protein of HEK293 cells) (UniProt P25963); assay: co-immunoprecipitation from HEK293 lysate (anti-myc IP / anti-IKBα blot)
[2] = molecular target: IKBα (KB inhibitor IKB, endogenous protein of HEK293 cells) (UniProt P25963); assay: co-immunoprecipitation from HEK293 lysate (anti-IKBα IP / anti-myc blot and the reverse)
[3] = molecular target: IKBα (KB inhibitor IKB, endogenous protein of HEK293 cells) (UniProt P25963); assay: co-immunoprecipitation from HEK293 lysate (anti-myc IP / anti-IKBα blot and the reverse)

Substance	binding [1]	binding [2]	binding [3]
N-terminal 103 amino acids of RCAN1 (expressed from pcDNA3.1RCAN1-103mychis in HEK293 cells) (from UniProt P53805 56-158)	binds	–	–
RCAN1.1-myc (regulator of calcineurin 1, splicing isoform 1, expressed from pcDNA3.1(-)RCAN1.1-myc in HEK293 cells) (from UniProt P53805 56-252)	–	binds	binds
